Source: article PMC12561425
These are yes or no findings as the source states them, for the method shown. Some binding calls cover weakened binding; strength is not graded here.

By UniProt entry, the sequences of proteins in these tests, tags left out.
UniProt P16220: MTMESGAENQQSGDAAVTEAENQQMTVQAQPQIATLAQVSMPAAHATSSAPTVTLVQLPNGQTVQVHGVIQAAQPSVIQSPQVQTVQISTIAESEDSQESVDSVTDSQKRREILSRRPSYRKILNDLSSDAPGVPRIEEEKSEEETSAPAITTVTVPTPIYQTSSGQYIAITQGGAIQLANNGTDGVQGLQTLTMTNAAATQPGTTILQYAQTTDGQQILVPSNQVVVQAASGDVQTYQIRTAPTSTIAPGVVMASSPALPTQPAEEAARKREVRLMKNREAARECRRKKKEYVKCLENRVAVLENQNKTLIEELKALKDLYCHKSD

Molecular target: cyclic adenosine monophosphate (cAMP) response element-binding protein (CREB1/CREB) (human (endogenous in primary human keloid fibroblasts)) (UniProt P16220)
Assay: native gel or EMSA; native PAGE (Tris-Glycine native running buffer pH 8.8) and western blot with a CREB1 antibody on total protein of hKFs lysed in nondenaturing lysis buffer; hKFs untreated or with hsa_circ_0026782 overexpressed, knocked out or rescued

- binding: binds
Substance: cyclic adenosine monophosphate (cAMP) response element-binding protein (CREB1/CREB) (from UniProt P16220 1-327)
